From PMC11589570, “Critical assessment of LC3/GABARAP ligands used for degrader development and ligandability of LC3/GABARAP binding pockets” (Nature Communications, 2024)
Where “and” joins values, the source holds several entries; their conditions need not be identical. Identical values can stand only once. Further values from the same series stand in other lists.

Tested on: U2OS cells
Assay: Cell growth assay (IncuCyte confluence over 72 h)
Assay type: cell-based
Design: key: % of well area covered by cells (confluence)
Details: listed as AN1
Method: Cell growth assay: Cell confluence (phase) from RPE1 (hTERT RPE-1, ATCC CLR_4000) or U2OS (ATCC, HTB-96) cell lines were monitored over time with the IncuCyte S3 (Sartiorius, Germany) in 384-well plates in 50 ul DMEM media, supplemented with 10% Fetal Bovine Serum (FBS) 1% penicillin/Streptomycin and incubated 24 h before treatment. Experiment was performed as described in Cano-Franco et al.. […] Cell confluence is represented as % of area covered by cells. Each data point represents the average ratio or confluence obtained from three individual wells of the plate.

For `O=C1Nc2ccc(Br)cc2C1=Cc1cc(O)c(O)c(Br)c1` [compound 1], the U2OS cell growth (500 nM, time 0 h) was 27.347 and 27.5739 and 28.04, the U2OS cell growth (500 nM, time 2 h) was 28.4326 and 29.582 and 32.162 and the U2OS cell growth (500 nM, time 4 h) was 29.2474 and 26.4948 and 33.3312. The U2OS cell growth (500 nM, time 6 h) was 32.7874 and 38.6315 and 39.1449, the U2OS cell growth (500 nM, time 8 h) was 33.7929 and 39.8343 and 34.382 and the U2OS cell growth (500 nM, time 20 h) was 48.92 and 50.9157 and 50.1778. For the same compound, the U2OS cell growth (500 nM, time 22 h) was 55.9888 and 55.3484 and 62.0555, the U2OS cell growth (500 nM, time 24 h) was 47.2227 and 55.2266 and 54.3757 and the U2OS cell growth (500 nM, time 26 h) was 49.5272 and 54.6198 and 58.5467. For the same compound, the U2OS cell growth (500 nM, time 28 h) was 56.9543 and 63.078 and 61.4608, the U2OS cell growth (500 nM, time 30 h) was 58.5292 and 63.693 and 59.3117 and the U2OS cell growth (500 nM, time 32 h) was 62.4411 and 66.551 and 61.6048. For the same compound, the U2OS cell growth (500 nM, time 34 h) was 60.479 and 64.1848 and 62.5155, the U2OS cell growth (500 nM, time 36 h) was 65.4275 and 71.4226 and 66.8445 and the U2OS cell growth (500 nM, time 38 h) was 70.8575 and 75.2609 and 72.5946. The U2OS cell growth (500 nM, time 40 h) was 81.889 and 81.0153 and 84.0964, the U2OS cell growth (500 nM, time 42 h) was 77.7551 and 81.5465 and 81.047 and the U2OS cell growth (500 nM, time 44 h) was 78.7402 and 81.7938 and 75.3931. For the same compound, the U2OS cell growth (500 nM, time 46 h) was 77.525 and 72.7035 and 84.9484, the U2OS cell growth (500 nM, time 48 h) was 83.6641 and 86.7101 and 87.4273 and the U2OS cell growth (500 nM, time 50 h) was 78.6715 and 84.6189 and 79.8616. For the same compound, the U2OS cell growth (500 nM, time 52 h) was 87.7348 and 89.5251 and 90.4969, the U2OS cell growth (500 nM, time 58 h) was 89.3873 and 92.5884 and 92.5474 and the U2OS cell growth (500 nM, time 64 h) was 94.6631 and 97.2152 and 93.7109. For the same compound, the U2OS cell growth (500 nM, time 66 h) was 95.9856 and 97.7723 and 98.2119, the U2OS cell growth (500 nM, time 72 h) was 98.5511 and 99.0536 and 99.2748 and the U2OS cell growth (1 uM, 20 h) was 54.2257 and 53.0051 and 59.2876. The U2OS cell growth (1 uM, 22 h) was 58.8643 and 58.4763 and 65.8667, the U2OS cell growth (1 uM, 24 h) was 57.0907 and 59.6608 and 67.9515 and the U2OS cell growth (1 uM, 26 h) was 64.2023 and 64.2101 and 65.5851. For the same compound, the U2OS cell growth (1 uM, 28 h) was 65.419 and 63.162 and 74.8274, the U2OS cell growth (1 uM, 30 h) was 60.369 and 68.737 and 77.0852 and the U2OS cell growth (1 uM, 32 h) was 67.7049 and 71.2518 and 77.7088. For the same compound, the U2OS cell growth (1 uM, 34 h) was 71.8513 and 71.0617 and 75.8812, the U2OS cell growth (1 uM, 36 h) was 72.6487 and 73.5901 and 80.994 and the U2OS cell growth (1 uM, 38 h) was 81.9334 and 80.4249 and 85.2844. The U2OS cell growth (1 uM, 40 h) was 81.4489 and 83.429 and 88.396, the U2OS cell growth (1 uM, 42 h) was 85.3648 and 85.8336 and 90.2731 and the U2OS cell growth (1 uM, 44 h) was 82.2352 and 84.7766 and 90.447. The U2OS cell growth (1 uM, 46 h) was 81.1405 and 82.5387 and 84.0104, the U2OS cell growth (1 uM, 48 h) was 86.4709 and 90.617 and 92.863 and the U2OS cell growth (1 uM, 50 h) was 88.9665 and 89.6182 and 90.7793. For the same compound, the U2OS cell growth (1 uM, 52 h) was 90.8118 and 91.2949 and 96.0267, the U2OS cell growth (1 uM, 54 h) was 87.4646 and 89.9239 and 89.2432 and the U2OS cell growth (1 uM, 56 h) was 93.2155 and 93.7559 and 96.3918. The U2OS cell growth (1 uM, 58 h) was 93.1927 and 93.4527 and 95.8635, the U2OS cell growth (1 uM, 60 h) was 96.1131 and 97.2562 and 98.39 and the U2OS cell growth (1 uM, 62 h) was 96.0348 and 96.9166 and 98.4119. For the same compound, the U2OS cell growth (1 uM, 64 h) was 96.0537 and 96.436 and 98.3804, the U2OS cell growth (1 uM, 66 h) was 96.9643 and 98.4365 and 98.9885 and the U2OS cell growth (1 uM, 70 h) was 96.2072 and 98.5971 and 99.4122. For the same compound, the U2OS cell growth (1 uM, 72 h) was 98.3341 and 99.3567 and 99.7552, the U2OS cell growth (1 uM, time 0 h) was 32.4763 and 36.5565 and 38.7861 and the U2OS cell growth (1 uM, time 2 h) was 36.9222 and 41.1625 and 40.9365. The U2OS cell growth (1 uM, time 4 h) was 33.9856 and 35.2243 and 36.5124, the U2OS cell growth (1 uM, time 6 h) was 43.6094 and 41.4578 and 47.4146 and the U2OS cell growth (1 uM, time 8 h) was 40.8463 and 46.4609 and 50.7157. The U2OS cell growth (1 uM, time 20 h) was 64.3933 and 61.6371, the U2OS cell growth (1 uM, time 24 h) was 54.8961 and 69.4029 and 64.2675 and the U2OS cell growth (1 uM, time 26 h) was 65.564 and 69.5964 and 65.815. The U2OS cell growth (1 uM, time 28 h) was 65.6118 and 75.7091 and 71.4749, the U2OS cell growth (1 uM, time 30 h) was 64.1631 and 77.5361 and 72.8869 and the U2OS cell growth (1 uM, time 32 h) was 68.1667 and 79.9558 and 76.9482. For the same compound, the U2OS cell growth (1 uM, time 34 h) was 64.999 and 72.2296 and 72.6737, the U2OS cell growth (1 uM, time 36 h) was 74.4706 and 82.7949 and 79.0155 and the U2OS cell growth (1 uM, time 38 h) was 74.7751 and 86.8697 and 86.0581. The U2OS cell growth (1 uM, time 40 h) was 79.5064 and 89.8162 and 85.2913, the U2OS cell growth (1 uM, time 42 h) was 80.0219 and 91.3705 and 88.4688 and the U2OS cell growth (1 uM, time 44 h) was 81.2116 and 91.8221 and 90.7123. For the same compound, the U2OS cell growth (1 uM, time 46 h) was 80.1881 and 86.3683 and 88.1535, the U2OS cell growth (1 uM, time 48 h) was 88.6226 and 95.2861 and 92.1604 and the U2OS cell growth (1 uM, time 50 h) was 84.3172 and 90.9909 and 85.0324. The U2OS cell growth (1 uM, time 52 h) was 89.1502 and 97.4295 and 94.744, the U2OS cell growth (1 uM, time 54 h) was 87.8552 and 91.4949 and 91.613 and the U2OS cell growth (1 uM, time 56 h) was 91.9005 and 98.604 and 95.309. The U2OS cell growth (1 uM, time 60 h) was 95.5524 and 99.6096 and 97.8118, the U2OS cell growth (1 uM, time 62 h) was 95.4867 and 99.6371 and 98.4313 and the U2OS cell growth (1 uM, time 64 h) was 96.1309 and 99.5949 and 98.2894. For the same compound, the U2OS cell growth (1 uM, time 66 h) was 96.3913 and 99.6502 and 98.9666, the U2OS cell growth (1 uM, time 68 h) was 96.8805 and 99.7291 and 99.369 and the U2OS cell growth (1 uM, time 70 h) was 98.9349 and 99.4744 and 98.3444. The U2OS cell growth (1 uM, time 72 h) was 98.6602 and 99.9562 and 99.8308.
